The whole screen tested about 2,200 compounds, of which about 15 (0.7%) were called active.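 How the source made its calls: active means fitted half-maximal concentration for loss of luminescence signal no more than a set limit of log units above the top tested concentration; inconclusive means flat fit with 30 to 70% signal loss, or invalid fit; inactive means half-maximal concentration above that set limit.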 The list shows a part of the results.
Experiment: ADP-Glo luciferase signal interference – biochemical, luminescence, cell-free, homogeneous, artefact control for GSK3beta inhibitor project, dose response (AID 434947);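 further: kinase-free counter screen of ADP-Glo detection reagents for GSK3beta hits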
Conditions: Cell-free ADP-Glo reagents, 5 uM ADP

EC50, inactive:
O=c1c(-c2ccc(O)cc2)coc2cc(O)cc(O)c12 > 30 µM, O=C(Nc1ccc(O)c2c(=O)cc(-c3ccccc3Cl)oc12)c1cccs1 > 30 µM, Cc1c(NC(=O)C(C)OC(=O)COc2ccccc2)c(=O)n(-c2ccccc2)n1C (stereo not given) > 30 µM, Cc1cc(CN(C)C(=O)c2ccc(OC3CCN(CCc4ccccc4)CC3)cc2)on1 > 30 µM, Cc1cc(-c2onc3ccc(Cl)cc23)ccc1O > 30 µM, COCCN(CC(=O)NCc1ccc(OC)cc1)C(=O)CCC(=O)Nc1nccs1 > 30 µM, COc1ccc(C(=O)Nc2ccc([N+](=O)[O-])cn2)cc1OC > 30 µM, COc1cccc(-c2nnc3sc(C4CCCCC4)nn23)c1 > 30 µM, O=[N+]([O-])c1cc(/C=N/O)ccc1Oc1cccc(Cl)c1 > 30 µM, C=CCNc1nc(N)c([N+](=O)[O-])c(Nc2ccccc2OC)n1 > 30 µM, COCCn1c(SCC(=O)Nc2ccc(Cl)cn2)nnc1-c1ccncc1 > 30 µM, O=C(c1cccc(-c2ccccc2)c1)N1CC[C@@H](N2CCC(O)CC2)[C@H](O)C1 > 30 µM, Cc1cc(Br)ccc1NC(=O)CN1C(=O)CCC1=O > 30 µM, N#Cc1c(N)nc2c(c1-c1ccc(F)cc1)CCC2 > 30 µM, Cc1cc(NC(=O)CCC(=O)N(c2cccnc2)C(C(=O)NC2CCCC2)c2ccccc2F)no1 (stereo not given) > 30 µM, CCNc1nc(N)nc(Oc2ccc(OCCOc3ccc(Cl)cc3Cl)nn2)n1 > 30 µM, N#Cc1c2n(c3c(N)ncnc13)CCCCC2 > 30 µM, OCCNc1nc(-c2cccnc2)nc2ccccc12 > 30 µM, CN1CCN(/N=C/c2ccc(-c3ccc([N+](=O)[O-])cc3Cl)o2)CC1 > 30 µM, N#Cc1c(-c2ccccc2)nc(SCC(=O)Nc2ccc(OC(F)(F)Cl)cc2)[nH]c1=O > 30 µM, c1ccc(Nc2nc(NCCN3CCOCC3)nc(Nc3ccccc3)n2)cc1 > 30 µM, O=C(Nc1ccncc1)Nc1ccccn1 > 30 µM, CC(=O)Oc1cccc(N2C(=O)c3ccc(C(=O)Nc4cccnc4)cc3C2=O)c1 > 30 µM, NC(=O)c1ncn([C@@H]2O[C@H](CO)[C@@H](O)[C@H]2O)c1O > 30 µM, Cn1nc(-c2ccc(Cl)cc2)nc2c(=O)n(C)c(=O)nc1-2 > 30 µM
